{"source": "PubChem BioAssay AID504784 | Drosophila RNAi Screening Center | 2011", "test": "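Fly genes whose silencing alters how much lipid cells keep in droplets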 (primary screen)", "cells": "Drosophila Kc167 embryonic cells", "reagents": "long dsRNA against Drosophila genes, about 250 ng dsRNA per well", "time to read-out": "4 days", "treatment": "cells fed 400 µM oleic acid bound to BSA", "read-out": "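Microscope images give a droplet-to-nucleus area ratio, taken as log and converted to a screen-wide B-score; higher values mean greater lipid storage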", "direction": "droplet/nuclear area B-score: higher = more stored lipid (overstorage)", "note": "In all, the deposit lists about 17,000 reagents; below is a random part of those that have a named target and a result. 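Each column is one replicate's B-score; the combined score over replicates was not deposited, so single values may mislead.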 Not all columns of the deposit are shown."}
{"target":"CG14492","amplicon":"DRSC06463","droplet/nuclear area B-score, replicate 1":-1.16}
{"target":"yps (ypsilon schachtel)","amplicon":"DRSC11411","droplet/nuclear area B-score, replicate 1":0.0217}
{"target":"Taf4 (TBP-associated factor 4)","amplicon":"DRSC11297","droplet/nuclear area B-score, replicate 1":0}
{"target":"botv","amplicon":"DRSC05949","droplet/nuclear area B-score, replicate 1":-0.413}
{"target":"rsh (radish)","amplicon":"DRSC19816","droplet/nuclear area B-score, replicate 1":-0.0123}
{"target":"l(3)07882 (lethal (3) 07882)","amplicon":"DRSC15882","droplet/nuclear area B-score, replicate 1":0.243}
{"target":"CG15332","amplicon":"DRSC18015","droplet/nuclear area B-score, replicate 1":-1.84}
{"target":"CG5550","amplicon":"DRSC06943","droplet/nuclear area B-score, replicate 1":0.0726}
{"target":"CG34457","amplicon":"DRSC06924","droplet/nuclear area B-score, replicate 1":0.267}
{"target":"Prim1 (DNA primase subunit 1)","amplicon":"DRSC11137","droplet/nuclear area B-score, replicate 1":1.79}
{"target":"CG5921","amplicon":"DRSC17431","droplet/nuclear area B-score, replicate 1":0.807}
{"target":"CG5921","amplicon":"DRSC18390","droplet/nuclear area B-score, replicate 1":1.42}
{"target":"CG5909","amplicon":"DRSC15914","droplet/nuclear area B-score, replicate 1":-0.248}
{"target":"CG32457","amplicon":"DRSC11596","droplet/nuclear area B-score, replicate 1":-2.11}
{"target":"CG32457","amplicon":"DRSC21722","droplet/nuclear area B-score, replicate 1":-0.205}
{"target":"CG31777","amplicon":"DRSC00201","droplet/nuclear area B-score, replicate 1":0.345}
